Fewer than 10 of roughly 1,400 compounds were called active.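 Rule for the calls: active = fluorescence-lowering compounds whose fitted half-maximal concentration is at or below ten times the highest valid dose tested; inconclusive = flat curve at 30 to 70% inhibition, or poor fit; inactive = the rest.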 The list shows a part of the results.
Target: Histone deacetylase 3 (Homo sapiens) (UniProt O15379)
Assay: HDAC3 deacetylase inhibitors, dose response, counter-screen for JMJD2C/GASC1 demethylase inhibitor project, biochemical, fluorescence, cherry-picked samples (AID 485318);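 note: enzyme preincubated with compound before substrate and trypsin were added; 0% = neutral control wells and -100% = SAHA positive control wells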
Conditions: recombinant HDAC3, fluorogenic peptide/trypsin coupled; at 12 µM (top of the series)

Protein sequences, listed by entry. Tags and fused reporters are not part of them. Lines headed by an entry give the natural chain unless they say otherwise; changes in a name come on top.
UniProt O15379: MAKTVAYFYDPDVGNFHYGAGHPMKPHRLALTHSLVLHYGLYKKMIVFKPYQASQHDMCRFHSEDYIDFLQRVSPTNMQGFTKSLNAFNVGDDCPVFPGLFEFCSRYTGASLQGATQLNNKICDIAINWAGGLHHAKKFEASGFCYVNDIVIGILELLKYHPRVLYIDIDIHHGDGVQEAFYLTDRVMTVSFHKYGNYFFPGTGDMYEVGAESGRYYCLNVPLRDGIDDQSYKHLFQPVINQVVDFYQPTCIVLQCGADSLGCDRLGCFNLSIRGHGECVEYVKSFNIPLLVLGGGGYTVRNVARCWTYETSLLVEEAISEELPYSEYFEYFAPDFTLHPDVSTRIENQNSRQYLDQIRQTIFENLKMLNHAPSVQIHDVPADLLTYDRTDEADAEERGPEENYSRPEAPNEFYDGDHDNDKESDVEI

| Structure (SMILES) | activity change, negative = inhibition |
| --- | --- |
| CCOC(=O)N1CCC(c2nc3ccccc3[nH]2)CC1 | inactive: 0.964% |
| CC(C)CCn1c(NCCN(C)C)nc2c1c(=O)[nH]c(=O)n2C | inactive: -0.59% |
| O=c1oc(C2(O)CCCCC2)cc2ccccc12 | inactive: -0.0707% |
| CCOc1ccc(-c2c(C#N)c(N)nc3c2c(=O)n(C)c(=O)n3C)cc1OC | inactive: 0.544% |
| CCN1C(=O)C(C(=O)Nc2ccc(OC)cc2)C2CC1(C)Oc1ccccc12 (stereo not given) | inactive: 0.383% |
| Cc1cc(OC(=O)c2c(C)cc(OC(=O)c3c(C)cc(O)cc3O)cc2O)cc(O)c1C(=O)O | inactive: 0.12% |
| COc1ccc(-c2nnc(SC(C)C(=O)NCc3ccc4c(c3)OCO4)n2Cc2ccco2)cc1 (stereo not given) | inactive: -0.548% |
| CCc1ccc(-c2nnn(Cc3nn[nH]n3)n2)cc1 | inactive: 0.626% |
| CC(C)CNC(=O)c1ccc(NC(=O)c2cccs2)cc1 | inactive: -0.0738% |
| Cc1[nH]c2ccccc2c1-c1ccc(Cl)nn1 | inactive: -1.36% |
| Clc1ccccc1Cn1nnc2c(NCCN3CCOCC3)ncnc21 | inactive: 0.515% |
| CS(=O)(=O)N(CC(=O)O)c1cc(Cl)cc(Cl)c1 | inactive: -0.416% |
| O=S(=O)(c1ccc2nc(Nc3ccccc3)ccc2c1)N1CCCCC1 | inactive: -0.0951% |
| CCCCOc1ccc(C(=O)Nc2ccc(N3CCN(C(C)=O)CC3)cc2)cc1 | inactive: 0.78% |
| O=c1cc(N/N=C/c2ccccc2)[nH]c(=O)[nH]1 | inactive: -0.139% |
| CC(=O)C[C@H](O)CC(=O)[C@H]1OC(=O)[C@H](C)CCCCc2ccccc21 | inactive: 0.499% |
| O=C(NS(=O)(=O)c1ccc2c(c1)OCCO2)c1ccccc1 | inactive: 0.348% |
| CCS(=O)(=O)N1CCN(c2ccc([N+](=O)[O-])c(N3CCOCC3)c2)CC1 | inactive: -0.0167% |
| O=C(CSc1nc2ccccc2c(=O)n1Cc1ccccc1)NCc1ccco1 | inactive: 0.0439% |
| CCOc1cc(/C=N/NC(=O)C(=O)N/N=C/c2ccc(O)c(OCC)c2)ccc1O | inactive: -0.0888% |
| CC(OC(=O)c1cccnc1SCc1cc(=O)n2ccccc2n1)c1ccccn1 (stereo not given) | inactive: -0.51% |
| COC(=O)c1ccc(CSc2nc3sc(C(=O)O)c(C)c3c(=O)[nH]2)cc1 | inactive: 0.622% |

| Structure (SMILES) | activity change, negative = inhibition |
| --- | --- |
| CC[C@]12c3[nH]c4ccccc4c3CCN1C(=O)C(CC(=O)NCCCOC)C[C@@H]2C(=O)N1CCN(C(=O)C2CC2)CC1 (stereo not given in full) | inactive: 0.125% |
| COc1ccc(NC(=O)CNC(=O)c2nn(-c3ccc(OC)c(Cl)c3)c(=O)c3ccccc23)c(OC)c1 | inactive: -0.0159% |
| Cc1nc2nc(C)c(CCC(=O)NCc3ccc4c(c3)OCO4)c(C)n2n1 | inactive: 0.43% |
| COC(=O)COc1ccc(Oc2cc(C)nc(SC)n2)nn1 | inactive: 1.16% |
| CCn1c(SCC(=O)NCC(=O)Nc2ccc(F)cc2)nnc1-c1ccncc1 | inactive: 0.118% |
| C[C@H](CO)N1C[C@H](C)[C@@H](CN(C)C(=O)Nc2ccc(C(F)(F)F)cc2)Oc2c(cccc2N(C)C)C1=O | inactive: 0.162% |
| Cc1nnc(N=c2ssnc2Cl)o1 | inactive: -0.304% |
| Cc1onc(-c2c(F)cccc2Cl)c1C(=O)NC1CC1 | inactive: -0.543% |
| Cc1csc(NC(=O)CSc2nnc(-c3ccncc3)n2C)n1 | inactive: 0.441% |
| Cc1cc2oc(=O)cc(CSc3nnc(-c4cccs4)o3)c2cc1C(C)C | inactive: 0.339% |
| CN1CCC[C@H]1CCNC(=O)c1c(-c2ccsc2)sc2ccccc12 | inactive: 0.161% |
| COc1ccc(C(=O)N2CCCC(c3nc(-c4ccc(OC)c(OC)c4)no3)C2)c(OC)c1 (stereo not given) | inactive: 0.546% |
| Cc1ccc(S(=O)(=O)NC(=O)NCc2ccc(Cl)cc2)cc1 | inactive: -0.66% |
| Cc1cccc(C2=N/C(=C\c3cccnc3)C(=O)O2)c1 | inactive: 0.15% |
| O=[N+]([O-])c1cc(-c2cnc3ccccc3n2)ccc1Oc1ccc(F)cc1 | inactive: 0.0434% |
| Cc1cccn2c(=O)c3cc(C(=O)NCCN4CCOCC4)c(=N)n(CCc4ccccc4)c3nc12 | inactive: 0.696% |
| O=C(O)Cc1ccc2oc(-c3cccnc3)nc2c1 | inactive: -0.955% |
| Cc1nc2cc(CO)ccc2n1C | inactive: -0.0334% |
| O=C1CCN(Cc2ccc(O)cc2)CCN1[C@H](CO)Cc1ccccc1 | inactive: 0.811% |
| CN(C)S(=O)(=O)c1cccc(NC(=S)NCc2ccc3c(c2)OCO3)c1 | inactive: -0.283% |
| COC(=O)c1cc(NC(=O)CSc2nncn2C)cc(C(=O)OC)c1 | inactive: 0.228% |
| O=C(NCC1CCCO1)c1ccc2c(=O)n(Cc3cccc(Br)c3)c(=S)[nH]c2c1 (stereo not given) | inactive: 0.246% |

| Structure (SMILES) | activity change, negative = inhibition |
| --- | --- |
| O=C(Cn1cncn1)NCc1cc(F)ccc1F | inactive: 0.155% |
| O=C(Nc1ccc(-c2nc3ncccc3o2)cc1)c1ccc(Br)o1 | inactive: -0.298% |
| C[C@@H]1CN([C@H](C)CO)C(=O)c2cccc(NS(=O)(=O)c3ccccc3)c2O[C@H]1CN(C)C | inactive: -1.05% |
| O=C(COC(=O)c1ccc(O)cc1)Nc1ccc(Cl)cc1 | inactive: 0.633% |
| CCCCNC(=O)CC1N=C2c3ccccc3N=C(SCC(=O)Nc3cccc(C)c3)N2C1=O (stereo not given) | inactive: -0.234% |
| O=C(NCCCN1CCOCC1)c1cccc(S(=O)(=O)N2CCc3ccccc3C2)c1 | inactive: -0.539% |
| FC(F)(F)c1ccccc1NC(=S)NN=C1CCCCCC1 | inactive: -0.043% |
| CC(C)(C)OC(=O)N[C@@H](Cc1ccccc1)C(=O)N[C@@H](CO)[C@H](O)[C@@H]1C[C@@H]1C(=O)NC1CCCCC1 | inactive: 0.712% |
| COc1ccc(N2CCN(C(=O)Cn3nnc(-c4ccc(N(C)C)cc4)n3)CC2)cc1 | inactive: 0.674% |
| C[C@@H]1CN([C@H](C)CO)C(=O)c2cc(NC(=O)Nc3ccc(C(F)(F)F)cc3)ccc2O[C@H]1CN(C)S(=O)(=O)c1ccccc1 | inactive: 0.477% |
| O=C(O)c1cc(O)c2c(c1)[C@@H]([C@H]1c3cc(C(=O)O)cc(O)c3C(=O)c3c(O[C@@H]4O[C@H](CO)[C@@H](O)[C@H](O)[C@H]4O)cccc31)c1cccc(O[C@@H]3O[C@H](CO)[C@@H](O)[C@H](O)[C@H]3O)c1C2=O | inactive: 0.118% |
| CCCC(=O)Nc1nn(C)c2nc3c(C)cccc3cc12 | inactive: 0.372% |
| COc1ccccc1-n1cnnc1SCC(=O)Nc1ncc(Cl)cc1Cl | inactive: 0.212% |
| COC(=O)c1cc(S(=O)(=O)NCCCN2CCCC2=O)cn1C | inactive: 0.57% |
| Cc1cc(-n2c(SCC(=O)NCc3cccs3)nc3n[nH]c(C)c3c2=N)ccc1Cl | inactive: 0.308% |
| COc1ccc(S(=O)(=O)NCCCCC(=O)O)cc1C(=O)O | inactive: 1.18% |
| COc1cc(C)c(/C=C(\C#N)C(=O)Nc2ccc(C)cc2)cc1C(C)C | inactive: 0.657% |
| O=C(Cc1cccc2ccccc12)N1CCCc2ccccc21 | inactive: -0.303% |
| CCOCCc1nnc(NC(=O)c2ccc(OC)c(OC)c2)s1 | inactive: -1.23% |
| CCCNC(=S)Nc1ccc(Nc2ccccc2)cc1 | inactive: 0.178% |
| CC(NC(=O)NNC(N)=S)(C(F)(F)F)C(F)(F)F | inactive: 0.344% |
| C[C@H](CO)N1C[C@H](C)[C@@H](CN(C)Cc2ccc(Cl)c(Cl)c2)Oc2c(NS(=O)(=O)c3cccs3)cccc2C1=O | inactive: 0.142% |

Six records drawn at random from those above:

| Structure (SMILES) | activity change, negative = inhibition |
| --- | --- |
| FC(F)(F)c1ccccc1NC(=S)NN=C1CCCCCC1 | inactive: -0.043% |
| Cc1ccc(S(=O)(=O)NC(=O)NCc2ccc(Cl)cc2)cc1 | inactive: -0.66% |
| COC(=O)c1cc(S(=O)(=O)NCCCN2CCCC2=O)cn1C | inactive: 0.57% |
| CCOc1cc(/C=N/NC(=O)C(=O)N/N=C/c2ccc(O)c(OCC)c2)ccc1O | inactive: -0.0888% |
| O=c1cc(N/N=C/c2ccccc2)[nH]c(=O)[nH]1 | inactive: -0.139% |
| C[C@@H]1CN([C@H](C)CO)C(=O)c2cccc(NS(=O)(=O)c3ccccc3)c2O[C@H]1CN(C)C | inactive: -1.05% |

(list continues)

| Structure (SMILES) | activity change, negative = inhibition |
| --- | --- |
| COc1ccc(CCNC(=O)c2ccc(N3CCCCS3(=O)=O)cc2)cc1OC | inactive: 0.084% |
| Cc1noc(C)c1NC(=O)N(C)C[C@H]1Oc2ccc(NC(=O)CCC(F)(F)F)cc2C(=O)N([C@H](C)CO)C[C@@H]1C | inactive: -0.0491% |
| Nc1nnc(SC2CC(=O)N(c3ccccc3)C2=O)s1 (stereo not given) | inactive: 0.06% |
| OCC1=C[C@@H](O)[C@@H]2C=CO[C@@H](O[C@@H]3O[C@H](CO)[C@@H](O)[C@H](O)[C@H]3O)[C@H]12 | inactive: -0.962% |
| COc1ccc(-n2c(C)cc(/C=N/Nc3nnc(C)n3N)c2C)cc1 | inactive: -0.352% |
| Cc1ccc(S(=O)(=O)NCCC(=O)OCC(=O)Nc2ccccc2Cl)cc1 | inactive: 0.205% |
| CC/C(=C/c1sc2ccc(C)cc2[n+]1CCCS(=O)(=O)[O-])SC | inactive: 0.516% |
| Cc1ccc(CONC(=O)c2cccc([N+](=O)[O-])c2)cc1 | inactive: 0.0462% |
| CC(=O)Nc1ccc(NC(=O)Cn2cnc3c(cnn3C(C)(C)C)c2=O)cc1 | inactive: -0.0692% |
| Cc1ccc(C(=O)CN2C(=O)C(=O)N(Cc3ccccc3)C2=O)cc1 | inactive: 0.0826% |
| O=C(CC(=O)N/N=C/c1c(F)cccc1Cl)NCc1ccccc1 | inactive: -0.59% |
| O=C(NC1CCN(S(=O)(=O)c2ccc(F)cc2)CC1)c1ccc(F)cc1 | inactive: -0.0742% |
| CSC1=N/C(=C\C=C\c2cccs2)C(=O)S1 | inactive: -0.264% |
| S=C(NCc1ccco1)Nc1cccc(Cl)c1 | inactive: -1.13% |
| CCOC(=O)C1(C)NC(c2cccs2)C2C(=O)N(c3ccc(OC)cc3)C(=O)C21 (stereo not given) | inactive: 0.328% |
| N#Cc1nc(COc2ccccc2F)oc1NCCCn1ccnc1 | inactive: 0.288% |
| O=C1c2ccc([N+](=O)[O-])cc2C(=O)N1Cc1cccnc1 | inactive: -0.944% |
| O=C(/C=C/c1ccc2c(c1)OCO2)NCCS(=O)(=O)N1CCN(c2ccc(F)cc2)CC1 | inactive: 0.0604% |
| COc1ccccc1-c1nc(C#N)c(NCc2ccc(F)cc2)o1 | inactive: -0.612% |

From PubChem BioAssay AID485318 (Broad Institute, 2010)
